Results published in patent US20200003760A1, “IN-VITRO METHODS FOR CLASSIFYING DRUGS ACCORDING TO THEIR POTENTIAL TO CAUSE LIVER CELL INJURY” (Board of Trustees of Michigan State University, priority 2018, published 2020).
Where two headings read alike, the source gives them in different places.

System: HepG2 cells
Assay: Drug/cytokine-induced cytotoxicity (% LDH release) concentration-response in HepG2 cells
Format: cell-based, human
Conditions: for Slops: 0 = no significant increase, drug alone (VEH); for Slope IFN: with IFN 10 ng/ml; for Slope TNF: with TNF 10 ng/ml
[1] = slope of four-parameter logistic fit, negative = increasing
[2] = categorical variable for quotients, drug/TNF versus drug/VEH
[3] = slope of four-parameter logistic fit, negative = increasing, with TNF and IFN

Compound | Q | Slops [1] | Slope IFN [1] | Slope TNF [1] | Q [2] | Slope TNF/IFN [3] | Slope TNF/IFN
O=C(O)Cc1ccccc1Nc1c(Cl)cccc1Cl [Diclofenac] | 0 (key: 0 if Delta VEH and/or Delta cytokine is <10% LDH; 1 if both Delta VEH and Delta cytokine are ≥10% LDH) | 0 | 0 | −12.5 |  |  | 
NNC(=O)c1ccncc1 [Isoniazid] |  | −32.3 | −43.4 | −3.1 | 0 (0 if Delta VEH and/or Delta cytokine is <10% LDH) | −4.7 | 
CC(CN1c2ccccc2Sc2ccccc21)N(C)C (stereo not shown) [Promethazine] |  | 0 | 0 | 0 | 0 (0 if Delta VEH and/or Delta cytokine is <10% LDH) | 0 | 
CC[C@H]1OC(=O)[C@H](C)[C@@H](O[C@H]2C[C@@](C)(OC)[C@@H](O)[C@H](C)O2)[C@H](C)[C@@H](O[C@@H]2O[C@H](C)C[C@H](N(C)C)[C@H]2O)[C@](C)(O)C[C@@H](C)CN(C)[C@H](C)[C@@H](O)[C@]1(C)O [Azithromycin] |  | 0 | 0 | 0 | 0 (0 if Delta VEH and/or Delta cytokine is <10% LDH) | −1.8 | 
N[C@@H]1[C@H]2CN(c3nc4c(cc3F)c(=O)c(C(=O)O)cn4-c3ccc(F)cc3F)C[C@@H]12 [Trovafloxacin] |  | −1.9 | −1.4 | −1.8 | 0 (0 if Delta VEH and/or Delta cytokine is <10% LDH) |  | 
CC(=O)Oc1ccccc1C(=O)O [Aspirin] |  | 0 | 3.013 | 0 | 0 (0 if Delta VEH and/or Delta cytokine is <10% LDH) | 0 | 
O=C(O)[C@H]1/C(=C/CO)O[C@@H]2CC(=O)N21 [Clavulanate] |  | 0 | 0 | −8.2 | 0 (0 if Delta VEH and/or Delta cytokine is <10% LDH) | −16.1 | 
CS(=O)(=O)Nc1ccc([N+](=O)[O-])cc1Oc1ccccc1 [Nimesulide] | 0 (key: 0 if Delta VEH and/or Delta cytokine is <10% LDH; 1 if both Delta VEH and Delta cytokine are ≥10% LDH) | 0 | 0 | −14.9 |  |  | −15.2
CS(=O)(=O)c1ccc(C2=C(c3ccccc3)C(=O)OC2)cc1 [Rofecoxib] |  | 0 | 0 | 0 | 0 (0 if Delta VEH and/or Delta cytokine is <10% LDH) | 0 | 
COc1ccc2cc([C@H](C)C(=O)O)ccc2c1 [Naproxen] |  | −7.3 | −8.3 | −6.6 | 0 (0 if Delta VEH and/or Delta cytokine is <10% LDH) |  | 
CC(C)Cc1ccc(C(C)C(=O)O)cc1 (stereo not shown) [Ibuprofen] |  | −6.1 | −5.5 | −2.2 | 1 (1 if both Delta VEH and Delta cytokine are ≥10% LDH) |  | 
O=C1CC2(CCCC2)CC(=O)N1CCCCN1CCN(c2ncccn2)CC1 [Buspirone] |  | 0 | 0 | 0 | 0 (0 if Delta VEH and/or Delta cytokine is <10% LDH) |  | 
Cc1onc(-c2c(F)cccc2Cl)c1C(=O)N[C@@H]1C(=O)N2[C@@H]1SC(C)(C)[C@@H]2C(=O)O [Flucloxacillin] |  | 0 | −5.0 | 0 | 1 (1 if both Delta VEH and Delta cytokine are ≥10% LDH) | 0 | 
CN(C)CCCN1c2ccccc2Sc2ccc(Cl)cc21 [Chlorpromazine] |  | −10.1 | −12.6 | −7.6 | 1 (1 if both Delta VEH and Delta cytokine are ≥10% LDH) | −5.3 | 
CC[C@H]1OC(=O)[C@H](C)C(=O)[C@H](C)[C@@H](O[C@@H]2O[C@H](C)C[C@H](N(C)C)[C@H]2O)[C@](C)(OC)C[C@@H](C)C(=O)[C@H](C)[C@H]2N(CCCCn3cnc(-c4cccnc4)c3)C(=O)O[C@]12C [Telithromycin] |  | −4.2 | −4.0 | −3.1 | 1 (1 if both Delta VEH and Delta cytokine are ≥10% LDH) |  | 
CC(=O)[C@]1(O)Cc2c(O)c3c(c(O)c2[C@@H](O[C@H]2C[C@H](N)[C@H](O)[C@H](C)O2)C1)C(=O)c1ccccc1C3=O [Idarubicin] |  | 0 | 0 | 0 | 0 (0 if Delta VEH and/or Delta cytokine is <10% LDH) | 0 | 
COc1cccc2c1C(=O)c1c(O)c3c(c(O)c1C2=O)C[C@@](O)(C(=O)CO)C[C@@H]3O[C@H]1C[C@H](N)[C@H](O)[C@H](C)O1 [Doxorubicin] |  | −2.0 | −1.4 | −1.5 | 0 (0 if Delta VEH and/or Delta cytokine is <10% LDH) |  | 
Nc1c(CC(=O)O)cccc1C(=O)c1ccc(Br)cc1 [Bromfenac] |  | 0 | −19.7 | −3.4 | 0 (0 if Delta VEH and/or Delta cytokine is <10% LDH) | −4.0 | 
CN[C@H]1CC[C@@H](c2ccc(Cl)c(Cl)c2)c2ccccc21 [Sertraline] |  | 0 | 0 | 0 | 1 (1 if both Delta VEH and Delta cytokine are ≥10% LDH) | 0 | 
